Measurements reported in PubChem BioAssay AID1159584 (Peter MacCallum Cancer Centre, 2016)
The deposit covers about 18,000 reagents; this is an unselected part. Not all columns of the deposit are shown. No sequences are given here. Not given: the amount of reagent, the time to read-out.

Assay: 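Knock-downs that harm CDH1-null cells more than parental MCF10A cells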 (primary screen)
Cell system: human MCF10A breast epithelial cells, parental and CDH1-null
Reagents: siRNA against human genes
Detection: 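ATP luminescence (CellTiter-Glo) viability per line relative to mean mock wells over all plates, and the ratio of CDH1-null to parental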
Direction: CDH1-null / parental viability ratio: higher = CDH1-null cells survive relatively better than parental

SIAH2 (siah E3 ubiquitin protein ligase 2): CDH1-null / parental viability ratio = 0.99
NEK6 (NIMA related kinase 6): CDH1-null / parental viability ratio = 0.91
POLR3A (RNA polymerase III subunit A): CDH1-null / parental viability ratio = 1.07
SCAF1 (SR-related CTD associated factor 1): CDH1-null / parental viability ratio = 1.32
CDCA3 (cell division cycle associated 3): CDH1-null / parental viability ratio = 1.09
RAB3IP (RAB3A interacting protein): CDH1-null / parental viability ratio = 1.02
OTUD4 (OTU deubiquitinase 4): CDH1-null / parental viability ratio = 1.05
IGIP (IgA inducing protein): CDH1-null / parental viability ratio = 1.19
ADAT1 (adenosine deaminase tRNA specific 1): CDH1-null / parental viability ratio = 0.78
RYBP (RING1 and YY1 binding protein): CDH1-null / parental viability ratio = 0.99
ADAM10 (ADAM metallopeptidase domain 10): CDH1-null / parental viability ratio = 1.22
FIGLA (folliculogenesis specific bHLH transcription factor): CDH1-null / parental viability ratio = 0.94
TAF11 (TATA-box binding protein associated factor 11): CDH1-null / parental viability ratio = 1.31
LCE3C (late cornified envelope 3C): CDH1-null / parental viability ratio = 1.69
SCN4B (sodium voltage-gated channel beta subunit 4): CDH1-null / parental viability ratio = 1.11
PRR34 (PRR34 long non-coding RNA): CDH1-null / parental viability ratio = 0.76
DNAJC5 (DnaJ heat shock protein family (Hsp40) member C5): CDH1-null / parental viability ratio = 1.27
SLC11A1: CDH1-null / parental viability ratio = 1.02
ADNP (activity dependent neuroprotector homeobox): CDH1-null / parental viability ratio = 1.11
SUSD4 (sushi domain containing 4): CDH1-null / parental viability ratio = 1.26
RANBP3L (RAN binding protein 3 like): CDH1-null / parental viability ratio = 1
SPSB2 (splA/ryanodine receptor domain and SOCS box containing 2): CDH1-null / parental viability ratio = 1.21
PRMT6 (protein arginine methyltransferase 6): CDH1-null / parental viability ratio = 1.18
EID2 (EP300 interacting inhibitor of differentiation 2): CDH1-null / parental viability ratio = 1.04

Part of the list above in another layout.
| gene knocked down | CDH1-null / parental viability ratio |
| --- | --- |
| IGIP (IgA inducing protein) | 1.19 |
| ADAT1 (adenosine deaminase tRNA specific 1) | 0.78 |
| RYBP (RING1 and YY1 binding protein) | 0.99 |
